Assay results reported in the supplement of paper PMC12067093, “Discovery and optimisation of a covalent ligand for TRIM25 and its application to targeted protein ubiquitination” (Chemical Science, 2025).
Some of the results follow.

By UniProt entry, the sequences of proteins in these tests, tags left out. Where a name states a change or a piece, a line headed by the entry shows the natural chain unless it says otherwise.
UniProt P16152: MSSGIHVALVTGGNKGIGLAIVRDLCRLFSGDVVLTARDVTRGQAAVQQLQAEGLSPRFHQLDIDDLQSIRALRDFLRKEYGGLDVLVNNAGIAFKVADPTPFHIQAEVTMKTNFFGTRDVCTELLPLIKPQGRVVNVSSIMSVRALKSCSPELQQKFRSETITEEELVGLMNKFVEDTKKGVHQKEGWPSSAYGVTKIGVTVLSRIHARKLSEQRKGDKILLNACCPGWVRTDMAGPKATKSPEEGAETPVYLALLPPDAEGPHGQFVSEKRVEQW
UniProt P29466: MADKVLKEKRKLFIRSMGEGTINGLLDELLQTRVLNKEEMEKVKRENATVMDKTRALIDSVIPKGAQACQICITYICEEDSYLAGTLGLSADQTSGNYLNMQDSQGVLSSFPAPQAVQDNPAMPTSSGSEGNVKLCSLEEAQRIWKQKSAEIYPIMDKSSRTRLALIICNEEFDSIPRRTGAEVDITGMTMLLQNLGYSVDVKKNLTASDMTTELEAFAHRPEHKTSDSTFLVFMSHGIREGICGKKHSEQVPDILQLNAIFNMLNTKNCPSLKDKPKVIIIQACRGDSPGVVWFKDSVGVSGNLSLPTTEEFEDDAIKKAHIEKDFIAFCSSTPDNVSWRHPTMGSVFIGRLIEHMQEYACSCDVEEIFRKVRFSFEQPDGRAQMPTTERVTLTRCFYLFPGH
UniProt Q8IX12: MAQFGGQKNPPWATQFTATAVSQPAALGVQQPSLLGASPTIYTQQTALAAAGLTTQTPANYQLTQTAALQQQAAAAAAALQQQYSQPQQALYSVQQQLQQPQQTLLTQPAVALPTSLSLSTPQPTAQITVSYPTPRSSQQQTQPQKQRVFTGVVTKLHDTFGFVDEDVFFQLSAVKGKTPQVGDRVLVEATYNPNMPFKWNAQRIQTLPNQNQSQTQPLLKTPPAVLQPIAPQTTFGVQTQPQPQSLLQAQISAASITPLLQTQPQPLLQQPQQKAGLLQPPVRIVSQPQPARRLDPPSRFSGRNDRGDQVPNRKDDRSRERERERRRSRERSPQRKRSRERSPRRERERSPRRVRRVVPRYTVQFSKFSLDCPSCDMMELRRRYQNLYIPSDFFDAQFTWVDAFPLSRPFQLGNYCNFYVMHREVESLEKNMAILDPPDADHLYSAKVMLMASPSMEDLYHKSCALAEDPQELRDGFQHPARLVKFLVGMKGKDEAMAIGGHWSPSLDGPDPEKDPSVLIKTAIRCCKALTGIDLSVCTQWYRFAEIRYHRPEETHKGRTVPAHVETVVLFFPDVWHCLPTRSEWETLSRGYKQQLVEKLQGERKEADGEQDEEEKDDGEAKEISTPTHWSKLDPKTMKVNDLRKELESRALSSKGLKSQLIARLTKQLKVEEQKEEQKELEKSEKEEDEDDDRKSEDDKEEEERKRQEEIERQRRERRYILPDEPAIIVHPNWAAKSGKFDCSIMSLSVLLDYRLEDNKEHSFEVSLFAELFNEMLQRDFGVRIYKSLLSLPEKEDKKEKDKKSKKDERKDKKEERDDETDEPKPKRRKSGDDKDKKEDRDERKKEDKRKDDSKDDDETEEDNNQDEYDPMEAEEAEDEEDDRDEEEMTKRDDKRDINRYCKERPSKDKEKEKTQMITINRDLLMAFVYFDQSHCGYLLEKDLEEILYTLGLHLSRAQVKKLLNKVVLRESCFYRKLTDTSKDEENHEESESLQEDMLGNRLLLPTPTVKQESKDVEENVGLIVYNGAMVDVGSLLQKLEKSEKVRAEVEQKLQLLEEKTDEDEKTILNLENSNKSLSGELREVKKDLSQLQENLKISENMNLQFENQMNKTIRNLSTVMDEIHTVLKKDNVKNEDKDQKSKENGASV
UniProt P20248, whole entry, looked up: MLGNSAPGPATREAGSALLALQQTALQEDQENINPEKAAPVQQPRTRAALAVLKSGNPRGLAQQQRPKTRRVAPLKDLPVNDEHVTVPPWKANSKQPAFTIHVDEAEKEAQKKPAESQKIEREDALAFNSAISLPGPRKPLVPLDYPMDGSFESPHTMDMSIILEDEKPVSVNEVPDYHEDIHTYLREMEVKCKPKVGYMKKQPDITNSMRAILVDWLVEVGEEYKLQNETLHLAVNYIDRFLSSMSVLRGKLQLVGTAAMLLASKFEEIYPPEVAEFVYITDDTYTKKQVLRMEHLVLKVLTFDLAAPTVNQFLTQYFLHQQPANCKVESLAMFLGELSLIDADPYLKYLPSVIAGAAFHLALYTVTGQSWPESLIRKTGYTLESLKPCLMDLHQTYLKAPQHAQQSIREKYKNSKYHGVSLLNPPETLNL
UniProt Q14444, whole entry: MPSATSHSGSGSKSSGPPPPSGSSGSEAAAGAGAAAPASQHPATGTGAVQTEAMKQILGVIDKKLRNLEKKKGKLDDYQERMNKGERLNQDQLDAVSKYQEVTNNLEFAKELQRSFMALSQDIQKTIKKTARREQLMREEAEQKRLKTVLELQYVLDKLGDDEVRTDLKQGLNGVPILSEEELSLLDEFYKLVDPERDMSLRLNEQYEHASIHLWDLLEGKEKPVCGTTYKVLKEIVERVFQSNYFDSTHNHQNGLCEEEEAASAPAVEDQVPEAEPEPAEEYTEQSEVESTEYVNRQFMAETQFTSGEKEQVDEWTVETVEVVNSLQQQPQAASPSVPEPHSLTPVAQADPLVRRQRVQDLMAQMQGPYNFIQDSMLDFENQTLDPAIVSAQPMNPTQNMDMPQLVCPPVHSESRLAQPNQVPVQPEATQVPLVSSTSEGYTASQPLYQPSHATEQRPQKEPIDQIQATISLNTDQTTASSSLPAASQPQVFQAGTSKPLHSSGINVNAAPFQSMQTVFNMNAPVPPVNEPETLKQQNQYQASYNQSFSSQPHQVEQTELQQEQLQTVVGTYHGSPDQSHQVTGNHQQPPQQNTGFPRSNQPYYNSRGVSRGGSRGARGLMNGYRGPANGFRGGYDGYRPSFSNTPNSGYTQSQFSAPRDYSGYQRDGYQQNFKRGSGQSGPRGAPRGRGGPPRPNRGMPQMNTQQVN
UniProt Q96LW7: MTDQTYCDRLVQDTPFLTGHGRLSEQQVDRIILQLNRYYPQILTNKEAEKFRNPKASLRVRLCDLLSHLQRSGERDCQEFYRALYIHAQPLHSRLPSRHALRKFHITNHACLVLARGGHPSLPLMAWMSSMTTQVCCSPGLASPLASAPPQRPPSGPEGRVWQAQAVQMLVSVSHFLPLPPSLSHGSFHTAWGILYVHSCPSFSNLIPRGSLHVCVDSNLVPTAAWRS
UniProt A6NC98: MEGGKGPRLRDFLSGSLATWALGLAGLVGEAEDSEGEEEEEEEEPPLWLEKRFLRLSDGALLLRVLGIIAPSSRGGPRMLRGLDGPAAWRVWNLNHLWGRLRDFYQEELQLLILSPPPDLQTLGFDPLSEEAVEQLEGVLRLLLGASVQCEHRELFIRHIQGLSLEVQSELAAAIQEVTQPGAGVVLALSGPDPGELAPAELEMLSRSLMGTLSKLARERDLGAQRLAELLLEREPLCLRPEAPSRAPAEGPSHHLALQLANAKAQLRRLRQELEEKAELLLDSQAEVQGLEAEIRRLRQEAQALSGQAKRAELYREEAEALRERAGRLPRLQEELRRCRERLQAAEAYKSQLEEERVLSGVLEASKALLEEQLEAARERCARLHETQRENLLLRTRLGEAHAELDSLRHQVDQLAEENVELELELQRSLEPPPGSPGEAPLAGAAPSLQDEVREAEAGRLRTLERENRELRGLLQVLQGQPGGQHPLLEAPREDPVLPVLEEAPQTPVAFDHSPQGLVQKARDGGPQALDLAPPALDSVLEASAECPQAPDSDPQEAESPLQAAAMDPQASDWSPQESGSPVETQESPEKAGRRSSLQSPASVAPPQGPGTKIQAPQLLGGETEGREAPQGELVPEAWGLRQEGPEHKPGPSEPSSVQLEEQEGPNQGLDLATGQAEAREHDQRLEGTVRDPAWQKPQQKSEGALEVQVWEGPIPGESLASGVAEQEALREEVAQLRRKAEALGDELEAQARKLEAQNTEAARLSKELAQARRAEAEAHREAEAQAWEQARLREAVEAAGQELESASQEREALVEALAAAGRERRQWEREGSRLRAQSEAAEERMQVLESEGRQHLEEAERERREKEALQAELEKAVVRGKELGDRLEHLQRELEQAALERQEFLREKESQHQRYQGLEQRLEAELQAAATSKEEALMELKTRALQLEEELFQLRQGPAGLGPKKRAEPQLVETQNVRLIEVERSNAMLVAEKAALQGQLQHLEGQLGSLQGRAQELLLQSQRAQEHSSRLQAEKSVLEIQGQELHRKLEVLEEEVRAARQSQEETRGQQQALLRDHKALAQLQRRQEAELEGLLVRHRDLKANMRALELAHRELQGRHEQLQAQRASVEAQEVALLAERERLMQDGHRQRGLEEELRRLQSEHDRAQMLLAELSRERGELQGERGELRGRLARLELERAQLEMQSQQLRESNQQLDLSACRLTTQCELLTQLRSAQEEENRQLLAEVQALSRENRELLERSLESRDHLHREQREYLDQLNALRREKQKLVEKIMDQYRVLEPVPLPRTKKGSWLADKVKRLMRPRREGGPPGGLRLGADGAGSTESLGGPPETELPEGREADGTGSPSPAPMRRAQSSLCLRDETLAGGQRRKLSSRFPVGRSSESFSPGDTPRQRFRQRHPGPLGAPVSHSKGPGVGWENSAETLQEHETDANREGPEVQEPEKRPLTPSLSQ
UniProt Q92851: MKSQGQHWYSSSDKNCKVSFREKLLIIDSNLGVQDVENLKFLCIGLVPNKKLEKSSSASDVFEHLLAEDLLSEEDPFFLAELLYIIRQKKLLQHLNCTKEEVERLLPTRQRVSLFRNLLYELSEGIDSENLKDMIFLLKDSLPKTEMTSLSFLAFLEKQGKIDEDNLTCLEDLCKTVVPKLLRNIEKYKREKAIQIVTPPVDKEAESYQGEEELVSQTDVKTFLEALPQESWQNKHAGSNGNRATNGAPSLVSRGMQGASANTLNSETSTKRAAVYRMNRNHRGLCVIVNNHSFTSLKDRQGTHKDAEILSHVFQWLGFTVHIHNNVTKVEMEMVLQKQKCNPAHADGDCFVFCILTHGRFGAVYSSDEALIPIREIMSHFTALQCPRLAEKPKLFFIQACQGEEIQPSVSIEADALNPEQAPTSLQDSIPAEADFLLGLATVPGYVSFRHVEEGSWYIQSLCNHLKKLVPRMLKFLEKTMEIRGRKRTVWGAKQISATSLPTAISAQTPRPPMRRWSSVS
UniProt P49589: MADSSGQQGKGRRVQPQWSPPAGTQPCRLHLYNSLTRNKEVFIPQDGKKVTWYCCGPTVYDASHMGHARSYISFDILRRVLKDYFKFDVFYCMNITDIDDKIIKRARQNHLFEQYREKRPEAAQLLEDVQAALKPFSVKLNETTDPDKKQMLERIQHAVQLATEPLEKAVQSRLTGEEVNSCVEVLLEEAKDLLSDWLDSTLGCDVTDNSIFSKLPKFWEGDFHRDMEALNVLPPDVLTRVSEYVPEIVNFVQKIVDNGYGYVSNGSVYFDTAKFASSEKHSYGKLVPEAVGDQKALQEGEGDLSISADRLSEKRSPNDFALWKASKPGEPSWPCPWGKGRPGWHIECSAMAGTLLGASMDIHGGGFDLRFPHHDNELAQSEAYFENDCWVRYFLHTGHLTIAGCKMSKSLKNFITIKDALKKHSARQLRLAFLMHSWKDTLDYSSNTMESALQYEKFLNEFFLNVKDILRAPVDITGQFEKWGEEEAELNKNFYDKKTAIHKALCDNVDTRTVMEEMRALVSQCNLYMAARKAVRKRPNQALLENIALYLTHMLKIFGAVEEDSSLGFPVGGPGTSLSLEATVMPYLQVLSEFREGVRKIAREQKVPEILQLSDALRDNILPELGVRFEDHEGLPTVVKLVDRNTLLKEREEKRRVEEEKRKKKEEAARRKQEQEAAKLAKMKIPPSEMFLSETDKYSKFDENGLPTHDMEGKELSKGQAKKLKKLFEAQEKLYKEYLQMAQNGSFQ
UniProt Q4VC31: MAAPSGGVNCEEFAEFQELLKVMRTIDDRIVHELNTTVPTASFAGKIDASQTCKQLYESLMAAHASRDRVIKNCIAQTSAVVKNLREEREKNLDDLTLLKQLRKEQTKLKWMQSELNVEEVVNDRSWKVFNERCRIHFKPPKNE
UniProt Q96A33: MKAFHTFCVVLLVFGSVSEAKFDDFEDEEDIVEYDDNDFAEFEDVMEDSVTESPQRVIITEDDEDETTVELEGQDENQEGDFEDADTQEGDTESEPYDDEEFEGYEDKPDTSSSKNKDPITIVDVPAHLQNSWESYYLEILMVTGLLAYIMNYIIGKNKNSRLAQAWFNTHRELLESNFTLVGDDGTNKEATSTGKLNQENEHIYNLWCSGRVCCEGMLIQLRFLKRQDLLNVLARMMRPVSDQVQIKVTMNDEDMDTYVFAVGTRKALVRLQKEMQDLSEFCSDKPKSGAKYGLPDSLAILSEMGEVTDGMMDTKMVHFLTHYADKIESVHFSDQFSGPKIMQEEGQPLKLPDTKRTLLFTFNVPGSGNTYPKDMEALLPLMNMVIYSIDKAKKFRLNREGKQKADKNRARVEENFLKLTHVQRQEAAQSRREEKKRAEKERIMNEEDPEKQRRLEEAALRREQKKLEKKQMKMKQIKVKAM

What follows are targets tested with CC1Cc2ccccc2N1C(=O)C1CCCN(C1)C(=O)CCl (mixture of isomers) [TRIM25 ligand 11 (diastereomer mixture)] (assay: probe-labelled cysteine peptide fold change vs DMSO (competition) (log2 fold change); higher = less target engagement (more negative = stronger competition)). Settings: 50 µM; THP-1; incubation time: 4 h.
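Note: competitive chemoproteomic profiling in live THP-1 cells with an iodoacetamide desthiobiotin (IA-DTB) probe, comparing probe-labelled peptide intensities in compound-treated cells against DMSO-treated controls.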

| Target | probe-labelled cysteine peptide fold change |
| --- | --- |
| CAST_P20810_381_SESELIDELSEDFDRSECK (UniProt P20810) | -0.152 |
| CBR1_P16152_122_DVCTELLPLIKPQGR (UniProt P16152) | -0.0753 |
| CASP1_P29466_362_LIEHMQEYACSCDVEEIFRK (UniProt P29466) | 0.036 |
| CCAR1_Q8IX12_579_TVPAHVETVVLFFPDVWHCLPTR (UniProt Q8IX12) | -0.135 |
| CCAR1_Q8IX12_744_SGKFDCSIMSLSVLLDYR (UniProt Q8IX12) | 0.158 |
| CCS_O14618_113_CLIEGTIDGLEPGLHGLHVHQYGDLTNNCNSCGNHFNPDGASHGGPQDSDR (UniProt O14618) | 0.0286 |
| CCNA2_P20248_390_TGYTLESLKPCLMDLHQTYLK (UniProt P20248) | -0.0607 |
| CAPRIN1_Q14444_226_PVCGTTYK (UniProt Q14444) | 0.131 |
| CARD19_Q96LW7_77_DCQEFYR (UniProt Q96LW7) | 0.116 |
| CCDC88B_A6NC98_1228_LTTQCELLTQLR (UniProt A6NC98) | -0.0454 |
| CASP10_Q92851_341+350_CNPAHADGDCFVFCILTHGR (UniProt Q92851) | -0.0669 |
| CAPZA2_P47755_111_KEATDPRPCEVENAVESWR (UniProt P47755) | -0.0894 |
| CAPN2_P17655_301_WNDNCPSWNTIDPEER (UniProt P17655) | -0.0348 |
| CCL5_P13501_73_QVCANPEK (UniProt P13501) | -0.339 |
| CASP7_P55210_70_CIIINNK (UniProt P55210) | 0.0125 |
| CAPN2_P17655_82_RPTEICADPQFIIGGATR (UniProt P17655) | -0.0698 |
| CAPZB_P47756_62_DYLLCDYNR (UniProt P47756) | -0.0983 |
| CARS_P49589_27_VQPQWSPPAGTQPCR (UniProt P49589) | -0.267 |
| CAT_P04040_232_LVNANGEAVYCK (UniProt P04040) | 0.194 |

| Target | probe-labelled cysteine peptide fold change |
| --- | --- |
| CARD9_Q9H257_329_EMFELQCLALRK (UniProt Q9H257) | -0.3 |
| CCNY_Q8ND76_39_EDTGCNLQHISDRENIDDLNMEFNPSDHPR (UniProt Q8ND76) | -0.159 |
| CCT4_P50991_120_AQDIEAGDGTTSVVIIAGSLLDSCTK (UniProt P50991) | 0.108 |
| CCNB2_O95067_314_VAAAASCLSQK (UniProt O95067) | 0.0978 |
| CAPN1_P07384_677_YSEPDLAVDFDNFVCCLVR (UniProt P07384) | 0.364 |
| CAPZA1_P52907_157_TIDGQQTIIACIESHQFQPK (UniProt P52907) | 0.16 |
| CARS_P49589_389_FPHHDNELAQSEAYFENDCWVR (UniProt P49589) | 0.184 |
| CCAR2_Q8N163_324_CCMLFVDDMAEPR (UniProt Q8N163) | -0.194 |
| CCDC58_Q4VC31_10_AAPSGGVNCEEFAEFQELLK (UniProt Q4VC31) | -0.0215 |
| CCDC106_Q9BWC9_184_DADGVLCR (UniProt Q9BWC9) | -0.0172 |
| CCS_O14618_246_QICSCDGLTIWEER (UniProt O14618) | -0.279 |
| CASP10_Q92851_169_QGKIDEDNLTCLEDLCK (UniProt Q92851) | -0.119 |
| CARS_P49589_182_LTGEEVNSCVEVLLEEAK (UniProt P49589) | -0.207 |
| CASP2_P42575_173+179_DGPVCLQVKPCTPEFYQTHFQLAYR (UniProt P42575) | -0.22 |
| CASP3_P42574_264_KQIPCIVSMLTK (UniProt P42574) | -0.098 |
| CAP1_Q01518_427_NSLDCEIVSAK (UniProt Q01518) | -0.124 |
| CARD9_Q9H257_454_GCLAGGGSPK (UniProt Q9H257) | -0.106 |
| CCDC47_Q96A33_283_EMQDLSEFCSDKPK (UniProt Q96A33) | -0.125 |
| CCDC47_Q96A33_209_LNQENEHIYNLWCSGR (UniProt Q96A33) | -0.0355 |

At a glance, part of the list above:

| Target | probe-labelled cysteine peptide fold change |
| --- | --- |
| CBR1_P16152_122_DVCTELLPLIKPQGR (UniProt P16152) | -0.0753 |
| CASP1_P29466_362_LIEHMQEYACSCDVEEIFRK (UniProt P29466) | 0.036 |
| CCAR1_Q8IX12_579_TVPAHVETVVLFFPDVWHCLPTR (UniProt Q8IX12) | -0.135 |
| CCAR1_Q8IX12_744_SGKFDCSIMSLSVLLDYR (UniProt Q8IX12) | 0.158 |
| CCS_O14618_113_CLIEGTIDGLEPGLHGLHVHQYGDLTNNCNSCGNHFNPDGASHGGPQDSDR (UniProt O14618) | 0.0286 |
| CCNA2_P20248_390_TGYTLESLKPCLMDLHQTYLK (UniProt P20248) | -0.0607 |
| CAPRIN1_Q14444_226_PVCGTTYK (UniProt Q14444) | 0.131 |
| CARD19_Q96LW7_77_DCQEFYR (UniProt Q96LW7) | 0.116 |
| CCDC88B_A6NC98_1228_LTTQCELLTQLR (UniProt A6NC98) | -0.0454 |
| CASP10_Q92851_341+350_CNPAHADGDCFVFCILTHGR (UniProt Q92851) | -0.0669 |
